Patent publication US11407745B2, “Indazole derivatives and pharmaceutical composition for preventing, alleviating or treating cancer containing the same” (KOREA INSTITUTE OF SCIENCE AND TECHNOLOGY, priority 2019, dated 2022)
Like-named read-outs stand apart in the source and are kept apart here. Some of these results come from one statement about several compounds together.

Protein sequences, listed by entry. Tags and fused reporters are not part of them. Residues count along the entry.
UniProt P00519, whole entry: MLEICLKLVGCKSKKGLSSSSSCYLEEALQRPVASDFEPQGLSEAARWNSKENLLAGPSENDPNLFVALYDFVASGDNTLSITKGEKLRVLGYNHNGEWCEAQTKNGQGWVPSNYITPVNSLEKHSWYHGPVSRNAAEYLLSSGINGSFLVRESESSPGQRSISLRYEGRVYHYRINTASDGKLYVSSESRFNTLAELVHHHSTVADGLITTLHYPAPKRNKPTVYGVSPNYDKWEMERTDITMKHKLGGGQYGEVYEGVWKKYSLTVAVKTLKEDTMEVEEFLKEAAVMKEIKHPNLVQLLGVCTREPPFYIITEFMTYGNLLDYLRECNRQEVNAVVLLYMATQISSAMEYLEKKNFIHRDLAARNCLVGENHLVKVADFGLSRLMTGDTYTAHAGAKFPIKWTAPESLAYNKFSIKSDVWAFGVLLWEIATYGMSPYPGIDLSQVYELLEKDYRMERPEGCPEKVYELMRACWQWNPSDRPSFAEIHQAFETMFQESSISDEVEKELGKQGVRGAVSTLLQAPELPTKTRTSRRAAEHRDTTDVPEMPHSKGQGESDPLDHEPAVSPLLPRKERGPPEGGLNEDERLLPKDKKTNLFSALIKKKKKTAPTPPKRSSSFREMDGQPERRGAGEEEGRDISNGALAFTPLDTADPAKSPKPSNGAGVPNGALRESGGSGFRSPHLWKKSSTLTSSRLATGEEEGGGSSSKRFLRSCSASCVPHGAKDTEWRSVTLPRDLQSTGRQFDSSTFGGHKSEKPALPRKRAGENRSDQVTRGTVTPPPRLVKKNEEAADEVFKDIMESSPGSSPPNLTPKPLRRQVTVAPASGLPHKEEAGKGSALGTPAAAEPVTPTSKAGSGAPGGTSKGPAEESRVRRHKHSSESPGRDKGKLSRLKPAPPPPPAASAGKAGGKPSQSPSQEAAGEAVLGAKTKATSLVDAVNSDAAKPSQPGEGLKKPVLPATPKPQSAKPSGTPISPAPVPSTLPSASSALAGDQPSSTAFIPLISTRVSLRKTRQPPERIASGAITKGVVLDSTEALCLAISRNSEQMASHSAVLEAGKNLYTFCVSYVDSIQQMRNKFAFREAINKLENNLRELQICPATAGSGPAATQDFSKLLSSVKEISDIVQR
UniProt Q08345, 19-913: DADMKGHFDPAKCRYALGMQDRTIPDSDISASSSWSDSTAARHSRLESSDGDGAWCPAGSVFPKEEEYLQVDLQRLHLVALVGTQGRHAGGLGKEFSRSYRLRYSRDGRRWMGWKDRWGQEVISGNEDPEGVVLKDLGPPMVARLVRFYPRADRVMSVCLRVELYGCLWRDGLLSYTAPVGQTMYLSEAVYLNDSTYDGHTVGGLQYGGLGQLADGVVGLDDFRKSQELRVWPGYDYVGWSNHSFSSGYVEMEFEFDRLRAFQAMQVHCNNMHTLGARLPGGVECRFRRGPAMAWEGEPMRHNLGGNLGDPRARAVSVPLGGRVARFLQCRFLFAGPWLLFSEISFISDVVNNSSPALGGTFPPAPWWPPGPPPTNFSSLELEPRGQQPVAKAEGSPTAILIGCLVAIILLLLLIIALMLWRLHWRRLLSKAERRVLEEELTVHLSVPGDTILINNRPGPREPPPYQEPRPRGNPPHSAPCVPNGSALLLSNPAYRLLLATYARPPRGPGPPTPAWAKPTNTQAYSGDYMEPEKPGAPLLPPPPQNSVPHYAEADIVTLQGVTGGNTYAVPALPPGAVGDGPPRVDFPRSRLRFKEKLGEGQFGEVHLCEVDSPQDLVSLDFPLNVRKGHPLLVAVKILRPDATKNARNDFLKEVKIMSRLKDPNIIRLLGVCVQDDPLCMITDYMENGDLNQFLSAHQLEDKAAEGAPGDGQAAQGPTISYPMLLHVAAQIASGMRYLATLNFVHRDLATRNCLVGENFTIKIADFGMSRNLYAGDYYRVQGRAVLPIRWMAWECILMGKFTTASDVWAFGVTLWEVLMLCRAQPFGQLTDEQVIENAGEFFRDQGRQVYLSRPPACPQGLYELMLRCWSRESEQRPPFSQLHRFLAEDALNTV

Key:
ABL^wild = ABL^wild (Homo sapiens, UniProt P00519); experiment: Hot Spot kinase assay, ABL wild type; format: biochemical
Method: Kinase analysis was conducted in a “Hot Spot” analysis platform manner. Specific kinase/substrate pairs and cofactors were prepared in a reaction buffer (20 mM HEPES (pH 7.5), 10 mM MgCl2, 1 mM EGTA, 0.02% Brij35, 0.02 mg/ml BSA, 0.1 mM Na3VO4, 2 mM DTT and 1% DMSO). 10 concentrations of compounds that were serially diluted 3 times in sequence from a concentration of 20 μM were added to the reaction mixture, and a mixture of ATP (10 μM, Sigma) and 33P ATP (Perkin Elmer) was added thereto after 20 minutes.

DDR1 = DDR1 (Homo sapiens, UniProt Q08345); experiment: Hot Spot kinase assay, DDR1; format: biochemical
Method: The kinase inhibitory effect of the compounds of Compound Nos. 1 to 16 was measured. Kinase analysis was conducted in a “Hot Spot” analysis platform manner. Specific kinase/substrate pairs and cofactors were prepared in a reaction buffer (20 mM HEPES (pH 7.5), 10 mM MgCl2, 1 mM EGTA, 0.02% Brij35, 0.02 mg/ml BSA, 0.1 mM Na3VO4, 2 mM DTT and 1% DMSO). 10 concentrations of compounds that were serially diluted 3 times in sequence from a concentration of 20 μM were added to the reaction mixture, and a mixture of ATP (10 μM, Sigma) and 33P ATP (Perkin Elmer) was added thereto after 20 minutes. The reaction was conducted at 25° C. for 120 minutes, the spots during the reaction were filtered using P81 ion exchange filter paper (Whatman #3698-915), and the unbound phosphate was removed by washing with 0.1% phosphoric acid using a filter.

Structure (SMILES) | inhibitory activity against ABL (in words) (ABL^wild) | inhibitory activity against DDR1 (in words) (DDR1) | other results
CN1CCN(Cc2cc(NC(=O)c3cccc(C#Cc4cccc5[nH]nc(N)c45)c3)cc(C(F)(F)F)c2)CC1 [Compound No. 12] | exhibited inhibitory activity | exhibited inhibitory activity | 
Nc1n[nH]c2cccc(C#Cc3cccc(NC(=O)c4cccc(C(F)(F)F)c4)c3)c12 [Compound No. 1, N-(3-((3-Amino-1H-indazol-4-yl)ethynyl)phenyl)-3-(trifluoromethyl)benzamide] | exhibited inhibitory activity | exhibited inhibitory activity | 
Nc1n[nH]c2cccc(C#Cc3cccc(NC(=O)c4ccc(N5CCOCC5)c(C(F)(F)F)c4)c3)c12 [Compound No. 8] |  |  | inhibitory activity against ABL (in words) (ABL^wild; listed as Compound 8): exhibited inhibitory activity; inhibitory activity against DDR1 (in words) (DDR1; listed as Compound 8): exhibited inhibitory activity
Nc1n[nH]c2cccc(C#Cc3cccc(C(=O)Nc4cccc(C(F)(F)F)c4)c3)c12 [Compound No. 9] | exhibited inhibitory activity | exhibited inhibitory activity | 
Nc1n[nH]c2cccc(C#Cc3cccc(NC(=O)c4cc(F)cc(C(F)(F)F)c4)c3)c12 [Compound No. 4, N-(3-((3-Amino-1H-indazol-4-yl)ethynyl)phenyl)-3-fluoro-5-(trifluoromethyl)benzamide] | exhibited inhibitory activity | exhibited inhibitory activity | 
Cc1cn(-c2cc(C(=O)Nc3cccc(C#Cc4cccc5[nH]nc(N)c45)c3)cc(C(F)(F)F)c2)cn1 [Compound No. 3] | exhibited inhibitory activity | exhibited inhibitory activity | 
Nc1n[nH]c2cccc(C#Cc3cccc(NC(=O)c4cc(C(F)(F)F)cc(C(F)(F)F)c4)c3)c12 [Compound No. 2, 4N-(3-((3-Amino-1H-indazol-4-yl)ethynyl)phenyl)-3,5-bis (trifluoromethyl)benzamide] | exhibited inhibitory activity | exhibited inhibitory activity | 
Nc1n[nH]c2cccc(C#Cc3cccc(NC(=O)c4cc(N5CCOCC5)cc(C(F)(F)F)c4)c3)c12 [Compound No. 5, N-(3-((3-Amino-1H-indazol-4-yl)ethynyl)phenyl)-3-morpholino-5-(trifluoromethyl)benzamide] | exhibited inhibitory activity | exhibited inhibitory activity | 
Nc1n[nH]c2cccc(C#Cc3cccc(C(=O)Nc4ccc(CN5CCOCC5)c(C(F)(F)F)c4)c3)c12 [Compound No. 16] | exhibited inhibitory activity | exhibited inhibitory activity | 
Nc1n[nH]c2cccc(C#Cc3cccc(C(=O)Nc4cc(C(F)(F)F)cc(C(F)(F)F)c4)c3)c12 [Compound No. 10, 3-((3-Amino-1H-indazol-4-yl)ethynyl)-N-(3,5-bis(trifluoromethyl)phenyl)benzamide] | exhibited inhibitory activity | exhibited inhibitory activity | 
CN1CCN(c2ccc(C(=O)Nc3cccc(C#Cc4cccc5[nH]nc(N)c45)c3)cc2C(F)(F)F)CC1 [Compound No. 7, N-(3-((3-Amino-1H-indazol-4-yl)ethynyl)phenyl)-4-(4-methylpiperazin-1-yl)-3-(trifluoromethyl)benzamide] |  | exhibited inhibitory activity | 
CCN1CCN(Cc2ccc(NC(=O)c3cccc(C#Cc4cccc5[nH]nc(N)c45)c3)cc2C(F)(F)F)CC1 [Compound No. 15, 3-((3-Amino-1H-indazol-4-yl)ethynyl)-N-(4-((4-ethylpiperazin-1-yl)methyl)-3-(trifluoromethyl)phenyl)benzamide] |  |  | inhibitory activity against ABL (in words) (ABL^wild; listed as Compound 15): exhibited inhibitory activity; inhibitory activity against DDR1 (in words) (DDR1; listed as Compound 15): exhibited inhibitory activity
Cc1ccc(C(=O)Nc2cccc(C#Cc3cccc4[nH]nc(N)c34)c2)cc1C(F)(F)F [Compound No. 6, N-(3-((3-Amino-1H-indazol-4-yl)ethynyl)phenyl)-4-methyl-3-(trifluoromethyl)benzamide] | exhibited inhibitory activity | exhibited inhibitory activity | 
Nc1n[nH]c2cccc(C#Cc3cccc(C(=O)Nc4ccc(Cl)c(C(F)(F)F)c4)c3)c12 [Compound No. 14, 3-((3-Amino-1H-indazol-4-yl)ethynyl)-N-(4-chloro-3-(trifluoromethyl)phenyl)benzamide] | exhibited inhibitory activity | exhibited inhibitory activity | 
Cc1cn(-c2cc(NC(=O)c3cccc(C#Cc4cccc5[nH]nc(N)c45)c3)cc(C(F)(F)F)c2)cn1 [Compound No. 11, 3-((3-Amino-1H-indazol-4-yl)ethynyl)-N-(3-(4-methyl-1H-imidazol-1-yl)-5-(trifluoromethyl)phenyl)benzamide] | exhibited inhibitory activity | exhibited inhibitory activity | 
